Laboratory results published in PubChem BioAssay AID248 (DTP/NCI, 2004).
The list does not hold the whole screen: it gathers tests that were run many times, whatever their T/C, doses with no T/C, and many T/C values between a quarter and a half above the control. Other doses and runs of a compound stand elsewhere. T/C: endpoint of the treated group in % of that of the vehicle group. Some entries give survivors of the animals treated and no T/C: the source holds a T/C of zero for them, seemingly a mark for toxic or unscored doses. Some doses without a T/C left all or most animals alive at the check, yet need not have been tolerated: the source hardly ever lists a survival T/C far under the control, and the zero likely stands for such cases as well. Survivors were counted at the toxicity check, usually on the fifth day, unless a day is given; later deaths do not show. Schedules are NCI's codes, read here as Q, the interval in days (D) or hours (H), X, the number of doses. Some entries hold several experiments; the values are given in rising order. Some schedule codes hold Z or #, which are not explained here. Where survival is the endpoint, this PubChem deposit counts one and a half times the control or more as active, and values a quarter to a half above the control carry no call in these data; other NCI protocols may use other cut-offs. Signs of the kind (2×) give the number of equal values in this list. Some T/C values are followed by the survivors on the day toxicity was checked, most often the fifth; without a count, all were alive then.

Test system: L1210 leukemia ip in BDF1 mice, survival T/C
Assay: NCI In Vivo Anticancer Drug Screen. Data for tumor model L1210 Leukemia (intraperitoneal) in B6D2F1 (BDF1) mice
Conditions: T/C endpoint: mean survival time, higher T/C = longer survival
[1] = dose: 50.0 mg/kg/injection, schedule: Q04DX003 (ip), vehicle: water
[2] = dose: 100.0 mg/kg/injection, schedule: Q04DX003 (ip), vehicle: water
[3] = dose: 200.0 mg/kg/injection, schedule: Q04DX003 (ip), vehicle: water
[4] = dose: 400.0 mg/kg/injection, schedule: Q04DX003 (ip), vehicle: water
[5] = dose: 400.0 mg/kg/injection, schedule: Q01DX001 (ip), vehicle: saline
[6] = dose: 100.0 mg/kg/injection, schedule: Q01DX009 (ip), vehicle: saline with Tween-80
[7] = dose: 200.0 mg/kg/injection, schedule: Q01DX009 (ip), vehicle: saline with Tween-80
[8] = dose: 300.0 mg/kg/injection, schedule: Q01DX001 (ip), vehicle: other
[9] = dose: 400.0 mg/kg/injection, schedule: Q01DX009 (ip), vehicle: Klucel (hydroxypropylcellulose) (HPC)
[10] = dose: 300.0 mg/kg/injection, schedule: Q01DX001 (ip), vehicle: saline

## C[n+]1c(-c2ccccc2)c2ccccc2c2ccccc21
dose: 6.25 mg/kg/injection, schedule: Q01DX009 (ip), vehicle: water
  survivor count: 0 of 6
dose: 6.25 mg/kg/injection, schedule: Q04DX003 (ip), vehicle: water
  survivor count: 6 of 6
dose: 12.5 mg/kg/injection, schedule: Q04DX003 (ip), vehicle: water
  survivor count: 0 of 6
dose: 25.0 mg/kg/injection, schedule: Q04DX003 (ip), vehicle: water
  survivor count: 0 of 6
[1]
  survivor count: 0 of 6
[2]
  survivor count: 0 of 6
[3]
  survivor count: 0 of 6
[4]
  survivor count: 0 of 6

## OC1CCCN(Cc2ccccc2)C1 (configuration not stated)
[5]
  survivor count: 0 of 6

## COc1ccc(OC)c(CBr)c1CBr
dose: 100.0 mg/kg/injection, schedule: Q01DX001 (ip), vehicle: carboxymethylcellulose (CMC)
  survivor count: 0 of 4
dose: 200.0 mg/kg/injection, schedule: Q01DX001 (ip), vehicle: carboxymethylcellulose (CMC)
  survivor count: 0 of 4
dose: 400.0 mg/kg/injection, schedule: Q01DX001 (ip), vehicle: carboxymethylcellulose (CMC)
  survivor count: 0 of 4

## Cc1ccc(NC(=S)NC(=O)c2cccc([N+](=O)[O-])c2)cc1C
[6]
  T/C: 93, 94, 102, 105 % of control
[7]
  T/C: 87, 102, 105 % of control (2×)
dose: 400.0 mg/kg/injection, schedule: Q01DX009 (ip), vehicle: saline with Tween-80
  T/C: 87, 91, 92 [5 of 6 alive], 96 % of control

## O=C1C=C2C(=CCOC2O)O1 (configuration not stated)
dose: 8.0 mg/kg/injection, schedule: Q01DX009 (ip), vehicle: Klucel (hydroxypropylcellulose) (HPC)
  survivor count: 1 of 6

## CCCCN=C=S
dose: 400.0 mg/kg/injection, schedule: Q04DX002 (ip), vehicle: saline with Tween-80
  survivor count: 1 of 3

## CC1CN1N (configuration not stated)
dose: 200.0 mg/kg/injection, schedule: Q04DX003 (ip), vehicle: saline
  survivor count: 0 of 6
[5]
  survivor count: 1 of 6

## CCOC(=O)C1=C(C)C(C)C(=O)NC1=O (configuration not stated)
[6]
  survivor count: 6 of 6

## CN=C(NC)c1ccc(NC(=O)/C=C\c2ccc(C(=O)Nc3ccc(C(=NC)NC)cc3)cc2)cc1
dose: 1.88 mg/kg/injection, schedule: Q01DX Z (ip), vehicle: saline
  T/C: 135 and 145 % of control
dose: 2.0 mg/kg/injection, schedule: Q01DX Z (ip), vehicle: saline
  T/C: 145 % of control
dose: 7.5 mg/kg/injection, schedule: Q01DX Z (ip), vehicle: saline
  T/C: 140 % of control
dose: 8.0 mg/kg/injection, schedule: Q01DX Z (sc), vehicle: saline
  T/C: 134 % of control
dose: 8.0 mg/kg/injection, schedule: Q02DX004 (im), vehicle: saline
  T/C: 135 % of control
dose: 15.0 mg/kg/injection, schedule: Q01DX Z (ip), vehicle: saline
  survivor count: 2 of 6
dose: 30.0 mg/kg/injection, schedule: Q01DX Z (ip), vehicle: saline
  survivor count: 0 of 6
dose: 60.0 mg/kg/injection, schedule: Q01DX Z (ip), vehicle: saline
  survivor count: 0 of 6
dose: 64.0 mg/kg/injection, schedule: Q01DX004 (im), vehicle: saline
  T/C: 149 % of control [5 of 6 alive]
dose: 120.0 mg/kg/injection, schedule: Q01DX Z (ip), vehicle: saline
  survivor count: 0 of 6

## O=C1CC2CCCCC2O1 (configuration not stated)
[7]
  survivor count: 2 of 3
[8]
  survivor count: 0 of 6 and 1 of 6

## COc1ccc(NC(=O)CCN2CC2)cc1
dose: 150.0 mg/kg/injection, schedule: Q01DX009 (ip), vehicle: alcohol
  survivor count: 1 of 6
dose: 225.0 mg/kg/injection, schedule: Q01DX009 (ip), vehicle: alcohol
  survivor count: 0 of 6
dose: 335.0 mg/kg/injection, schedule: Q01DX009 (ip), vehicle: alcohol
  survivor count: 0 of 6
dose: 400.0 mg/kg/injection, schedule: Q01DX001 (ip), vehicle: alcohol
  survivor count: 3 of 6

## COC(=O)c1ccc(C(=O)O)[n+]([O-])c1
[9]
  survivor count: 5 of 6

## NCCCn1c2ccccc2c2cnccc21
dose: 200.0 mg/kg/injection, schedule: Q01DX009 (ip), vehicle: water
  survivor count: 0 of 6
[3]
  survivor count: 0 of 6
[4]
  survivor count: 0 of 6

## CCCCN(C)N=Nc1c[nH]c(=O)[nH]c1=O
dose: 150.0 mg/kg/injection, schedule: Q01DX001 (ip), vehicle: other
  survivor count: 0 of 6
[8]
  survivor count: 0 of 6

## COC(C)C1C([N+](C)(C)C)CS1(=O)=O (configuration not stated)
[10]
  survivor count: 3 of 6

## ClCC#Cc1ccccc1
dose: 100.0 mg/kg/injection, schedule: Q01DX009 (ip), vehicle: saline
  survivor count: 0 of 6
dose: 200.0 mg/kg/injection, schedule: Q01DX009 (ip), vehicle: saline
  survivor count: 0 of 6
dose: 400.0 mg/kg/injection, schedule: Q01DX009 (ip), vehicle: saline
  survivor count: 2 of 6

## C[n+]1c(-c2ccc(Cl)c(Cl)c2)c2cc(N)ccc2c2ccccc21
dose: 25.0 mg/kg/injection, schedule: Q01DX009 (ip), vehicle: water
  survivor count: 6 of 6
[1]
  survivor count: 5 of 6
[2]
  survivor count: 0 of 6
[3]
  survivor count: 0 of 6
[4]
  survivor count: 0 of 6

## CN(C)c1ccc2nc3ccc(=[N+](C)C)cc-3sc2c1
dose: 40.0 mg/kg/injection, schedule: Q01DX Z (ip), vehicle: carboxymethylcellulose (CMC)
  survivor count: 10 of 10
dose: 200.0 mg/kg/injection, schedule: Q01DX001 (ip), vehicle: saline
  survivor count: 1 of 6

## Sc1cc(Cl)c(Cl)cc1Cl
dose: 250.0 mg/kg/injection, schedule: Q01DX Z (ip), vehicle: methylcellulose (MC)
  survivor count: 0 of 6
dose: 400.0 mg/kg/injection, schedule: Q01DX001 (ip), vehicle: saline with Tween-80
  survivor count: 2 of 6

## CC1(C)C(=O)N(Cl)C(=O)N1Cl
dose: 12.5 mg/kg/injection, schedule: Q01DX009 (ip), vehicle: Klucel (hydroxypropylcellulose) (HPC)
  survivor count: 3 of 3 and 6 of 6
dose: 50.0 mg/kg/injection, schedule: Q01DX001 (ip), vehicle: Klucel (hydroxypropylcellulose) (HPC)
  survivor count: 3 of 6
dose: 50.0 mg/kg/injection, schedule: Q01DX009 (ip), vehicle: Klucel (hydroxypropylcellulose) (HPC)
  survivor count: 0 of 3
dose: 50.0 mg/kg/injection, schedule: Q04DX002 (ip), vehicle: Klucel (hydroxypropylcellulose) (HPC)
  survivor count: 3 of 3
dose: 100.0 mg/kg/injection, schedule: Q01DX001 (ip), vehicle: Klucel (hydroxypropylcellulose) (HPC)
  survivor count: 0 of 6
dose: 100.0 mg/kg/injection, schedule: Q04DX002 (ip), vehicle: Klucel (hydroxypropylcellulose) (HPC)
  survivor count: 0 of 3
dose: 200.0 mg/kg/injection, schedule: Q01DX001 (ip), vehicle: Klucel (hydroxypropylcellulose) (HPC)
  survivor count: 0 of 6
dose: 200.0 mg/kg/injection, schedule: Q04DX002 (ip), vehicle: Klucel (hydroxypropylcellulose) (HPC)
  survivor count: 0 of 3
dose: 400.0 mg/kg/injection, schedule: Q04DX002 (ip), vehicle: Klucel (hydroxypropylcellulose) (HPC)
  survivor count: 0 of 3

## O=S1(=O)N2CN3CN(C2)CN1C3
[9]
  survivor count: 2 of 6

## CC1(C)CC(=O)C(C)(C)C(=O)C1
dose: 25.0 mg/kg/injection, schedule: Q01DX009 (ip), vehicle: saline with Tween-80
  survivor count: 5 of 6
dose: 50.0 mg/kg/injection, schedule: Q04DX003 (ip), vehicle: saline with Tween-80
  survivor count: 0 of 6
dose: 100.0 mg/kg/injection, schedule: Q04DX003 (ip), vehicle: saline with Tween-80
  survivor count: 0 of 6

## ClC1=C(Cl)C2(Cl)C3COCC3C1(Cl)C2(Cl)Cl (configuration not stated)
dose: 400.0 mg/kg/injection, schedule: Q04DX003 (ip), vehicle: Klucel (hydroxypropylcellulose) (HPC)
  survivor count: 6 of 6

## N#CC(N)c1ccccc1 (configuration not stated)
dose: 150.0 mg/kg/injection, schedule: Q01DX001 (ip), vehicle: saline
  survivor count: 0 of 6
[10]
  survivor count: 1 of 6

## Cc1cc(C)c(CCN(C)C)c(C)c1
[5]
  survivor count: 1 of 4
